Results are given in words; binding and its absence hold for the method and conditions named. Some results given as binding are weak or reduced against the parent protein; the word gives no strength. Sequences can lack the tags named with a protein.

Amino acid sequences for entries named in this document (tags omitted). A change or cut given only in a name is not applied to a line headed by its entry.
UniProt P08603: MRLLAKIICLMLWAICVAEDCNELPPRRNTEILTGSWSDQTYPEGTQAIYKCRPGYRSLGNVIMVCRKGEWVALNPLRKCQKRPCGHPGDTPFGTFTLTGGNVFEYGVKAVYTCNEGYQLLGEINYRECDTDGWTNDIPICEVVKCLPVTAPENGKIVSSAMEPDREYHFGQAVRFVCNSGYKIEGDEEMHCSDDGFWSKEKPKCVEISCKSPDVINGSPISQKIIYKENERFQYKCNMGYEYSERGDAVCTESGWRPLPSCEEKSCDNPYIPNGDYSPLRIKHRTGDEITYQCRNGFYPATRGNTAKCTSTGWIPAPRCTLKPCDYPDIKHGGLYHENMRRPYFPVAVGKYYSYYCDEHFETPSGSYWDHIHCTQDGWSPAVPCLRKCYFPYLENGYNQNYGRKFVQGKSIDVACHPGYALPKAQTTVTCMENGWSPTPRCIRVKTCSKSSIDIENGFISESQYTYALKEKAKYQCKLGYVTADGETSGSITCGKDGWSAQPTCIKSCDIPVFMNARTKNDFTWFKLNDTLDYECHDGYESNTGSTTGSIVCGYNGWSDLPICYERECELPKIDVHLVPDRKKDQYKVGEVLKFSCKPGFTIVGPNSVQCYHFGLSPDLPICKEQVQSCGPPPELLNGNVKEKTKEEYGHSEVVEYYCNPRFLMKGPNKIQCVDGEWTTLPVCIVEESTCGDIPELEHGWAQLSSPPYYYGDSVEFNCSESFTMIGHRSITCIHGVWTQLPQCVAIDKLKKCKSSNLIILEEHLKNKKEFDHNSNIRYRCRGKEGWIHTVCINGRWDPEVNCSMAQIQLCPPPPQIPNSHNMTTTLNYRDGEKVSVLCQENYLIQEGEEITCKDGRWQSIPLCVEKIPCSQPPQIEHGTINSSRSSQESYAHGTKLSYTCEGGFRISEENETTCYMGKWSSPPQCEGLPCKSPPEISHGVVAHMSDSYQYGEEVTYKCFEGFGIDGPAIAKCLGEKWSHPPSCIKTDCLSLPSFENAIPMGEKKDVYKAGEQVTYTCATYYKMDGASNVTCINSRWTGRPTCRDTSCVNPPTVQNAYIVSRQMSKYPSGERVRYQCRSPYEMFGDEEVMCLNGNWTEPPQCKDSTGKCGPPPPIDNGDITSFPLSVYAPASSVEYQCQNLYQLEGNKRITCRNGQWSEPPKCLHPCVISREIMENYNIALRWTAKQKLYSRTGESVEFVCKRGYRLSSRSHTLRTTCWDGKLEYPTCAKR

These results are taken from patent publication US20190100563A1 (UNIVERSITY COURT OF THE UNIVERSITY OF EDINBURGH, published 2019).

This experiment concerns the target T1, sPspCN (N-terminally hexaHis-SUMO-tagged PspC residues 37-140, S. pneumoniae strain D39) (Streptococcus pneumoniae (strain D39)).
T1 sequence: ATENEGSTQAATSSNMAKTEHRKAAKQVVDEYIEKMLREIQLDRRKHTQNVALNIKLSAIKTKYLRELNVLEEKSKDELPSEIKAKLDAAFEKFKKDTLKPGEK
Description: SPR, immobilised sPspCN, 50 nM analyte (concentration from the legend).
Take “CFH 19-20 (recombinant fragment, CCPs 19-20 of human CFH) (from UniProt P08603 1107-1231)”: the binding result was “binds”.

With “CFH 8-15 (recombinant fragment, CCPs 8-15 of human CFH) (from UniProt P08603 446-928)”, the binding entry is reported as “binds”.

With “CFH 8-9 (recombinant fragment, CCPs 8-9 of human CFH) (from UniProt P08603 446-566)”, the binding entry was “binds”.
